Data as given in PubChem BioAssay AID1259405 (NCATS, 2018).

Test: 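Knock-downs that lift recombinant protein yield in hamster ovary cells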 (primary screen)
Cells: Chinese hamster CHO-K1 ovary cells with stable secreted eGFP expression
Reagents: single siRNA against mouse genes, 0.8 pmol siRNA per well (2 µl of 400 nM stock)
Duration: 3 days
Detection: 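Percent of the per-plate non-targeting control median for intracellular GFP per well by laser scanning cytometry and for cell viability by ATP luminescence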
Scale: GFP, % of control: higher = more GFP per well, higher productivity; viability (ATP), % of control: higher = more viable cells (more ATP)
Rule for the call: 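Called active when intracellular GFP, relative to negative control, is at or above 120%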
The deposit covers about 50,000 reagents; this is an unselected part. About 4,000 of all reagents (8%) were called active. 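Mouse siRNA library applied to hamster cells; one well for each siRNA.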 Unmarked entries are inactive. The numbers tell different reagents against one gene apart.

Spns1 (SPNS lysolipid transporter 1, lysophospholipid) #1 showed GFP, % of control 111; viability (ATP), % of control 104.
Against Spns1 (SPNS lysolipid transporter 1, lysophospholipid) #2, the entry reads GFP, % of control 64.2; viability (ATP), % of control 77.5.
For Spns1 (SPNS lysolipid transporter 1, lysophospholipid) #3 the deposit lists GFP, % of control 116; viability (ATP), % of control 104.
Hlx (H2.0-like homeobox) #1 scored GFP, % of control 104; viability (ATP), % of control 100.
After knock-down of Hlx (H2.0-like homeobox) #2, the record shows GFP, % of control 113; viability (ATP), % of control 88.1.
After knock-down of Hlx (H2.0-like homeobox) #3 the results were GFP, % of control 40.3; viability (ATP), % of control 35.9.
Knock-down of Tmem17 (transmembrane protein 17) #1 came out at: GFP, % of control 118; viability (ATP), % of control 75.4.
Tmem17 (transmembrane protein 17) #2 gave GFP, % of control 77; viability (ATP), % of control 74.5.
Against Tmem17 (transmembrane protein 17) #3 the deposit lists GFP, % of control 87.4; viability (ATP), % of control 94.5.
Plk2 (polo like kinase 2) showed GFP, % of control 97; viability (ATP), % of control 100.
For Sf3b4 (splicing factor 3b, subunit 4) #1, the entry reads GFP, % of control 97; viability (ATP), % of control 95.5.
After knock-down of Sf3b4 (splicing factor 3b, subunit 4) #2 the results were GFP, % of control 71.7; viability (ATP), % of control 63.7.
Itprip (inositol 1,4,5-triphosphate receptor interacting protein) #1 scored GFP, % of control 109; viability (ATP), % of control 91.8.
With knock-down of Itprip (inositol 1,4,5-triphosphate receptor interacting protein) #2 the results were GFP, % of control 56.8; viability (ATP), % of control 79.
Depletion of Itprip (inositol 1,4,5-triphosphate receptor interacting protein) #3 resulted in: GFP, % of control 138 (active); viability (ATP), % of control 158.
Knock-down of Phykpl (5-phosphohydroxy-L-lysine phospholyase) #1 gave: GFP, % of control 84.5; viability (ATP), % of control 80.4.
For Phykpl (5-phosphohydroxy-L-lysine phospholyase) #2, the values are GFP, % of control 57.6; viability (ATP), % of control 74.2.
Phykpl (5-phosphohydroxy-L-lysine phospholyase) #3 showed GFP, % of control 51.8; viability (ATP), % of control 49.8.
After knock-down of Chtf18 (CTF18, chromosome transmission fidelity factor 18) #1, the screen gave GFP, % of control 89; viability (ATP), % of control 67.4.
Depletion of Chtf18 (CTF18, chromosome transmission fidelity factor 18) #2 gave: GFP, % of control 76; viability (ATP), % of control 60.
After knock-down of Chtf18 (CTF18, chromosome transmission fidelity factor 18) #3, the screen gave GFP, % of control 45.8; viability (ATP), % of control 53.3.
Silencing of Piwil2 (piwi-like RNA-mediated gene silencing 2) #1 came out at: GFP, % of control 77.4; viability (ATP), % of control 68.7.
With knock-down of Piwil2 (piwi-like RNA-mediated gene silencing 2) #2, the screen gave GFP, % of control 95.6; viability (ATP), % of control 91.7.
Knock-down of Piwil2 (piwi-like RNA-mediated gene silencing 2) #3 resulted in: GFP, % of control 94; viability (ATP), % of control 76.3.
Silencing of Ormdl2 (ORM1-like 2 (S. cerevisiae)) #1 came out at: GFP, % of control 76.5; viability (ATP), % of control 79.9.
With knock-down of Ormdl2 (ORM1-like 2 (S. cerevisiae)) #2, the record shows GFP, % of control 134 (active); viability (ATP), % of control 60.8.
With knock-down of Ormdl2 (ORM1-like 2 (S. cerevisiae)) #3, the screen gave GFP, % of control 56.8; viability (ATP), % of control 67.6.

Copied from the list.
For “viability (ATP), % of control”, Hlx (H2.0-like homeobox) #3 has 35.9
Under “GFP, % of control”, Itprip (inositol 1,4,5-triphosphate receptor interacting protein) #3 is entered as 138 (active)

Additional results follow.
After knock-down of Traf6 (TNF receptor-associated factor 6) #1 the results were GFP, % of control 99.6; viability (ATP), % of control 105.
Knock-down of Traf6 (TNF receptor-associated factor 6) #2 resulted in: GFP, % of control 106; viability (ATP), % of control 89.
With knock-down of Traf6 (TNF receptor-associated factor 6) #3 the results were GFP, % of control 92.3; viability (ATP), % of control 67.4.
With knock-down of Epb41l5 (erythrocyte membrane protein band 4.1 like 5) #1, the screen gave GFP, % of control 119; viability (ATP), % of control 81.5.
Silencing of Epb41l5 (erythrocyte membrane protein band 4.1 like 5) #2 came out at: GFP, % of control 86.5; viability (ATP), % of control 61.5.
Against Epb41l5 (erythrocyte membrane protein band 4.1 like 5) #3, the entry reads GFP, % of control 89.6; viability (ATP), % of control 92.2.
After knock-down of 1700001J03Rik (RIKEN cDNA 1700001J03 gene) #1 the results were GFP, % of control 62.8; viability (ATP), % of control 46.
Depletion of 1700001J03Rik (RIKEN cDNA 1700001J03 gene) #2 resulted in: GFP, % of control 110; viability (ATP), % of control 92.3.
1700001J03Rik (RIKEN cDNA 1700001J03 gene) #3 showed GFP, % of control 88.9; viability (ATP), % of control 87.9.
Silencing of Amer3 (APC membrane recruitment 3) #1 gave: GFP, % of control 64.2; viability (ATP), % of control 65.2.
For Amer3 (APC membrane recruitment 3) #2, the entry reads GFP, % of control 112; viability (ATP), % of control 68.
For Amer3 (APC membrane recruitment 3) #3, the values are GFP, % of control 68.2; viability (ATP), % of control 80.6.
For Fnbp1l (formin binding protein 1-like) #1, the values are GFP, % of control 63.6; viability (ATP), % of control 86.1.
With knock-down of Fnbp1l (formin binding protein 1-like) #2, the screen gave GFP, % of control 78.3; viability (ATP), % of control 81.
Against Fnbp1l (formin binding protein 1-like) #3, the entry reads GFP, % of control 69.8; viability (ATP), % of control 73.3.
